This is an account of results in publication PMC11761162.

The experiment addresses T1, HA-mGBP2 fusion protein (murine guanylate binding protein 2) (mouse) (UniProt Q9Z0E6).
T1 sequence: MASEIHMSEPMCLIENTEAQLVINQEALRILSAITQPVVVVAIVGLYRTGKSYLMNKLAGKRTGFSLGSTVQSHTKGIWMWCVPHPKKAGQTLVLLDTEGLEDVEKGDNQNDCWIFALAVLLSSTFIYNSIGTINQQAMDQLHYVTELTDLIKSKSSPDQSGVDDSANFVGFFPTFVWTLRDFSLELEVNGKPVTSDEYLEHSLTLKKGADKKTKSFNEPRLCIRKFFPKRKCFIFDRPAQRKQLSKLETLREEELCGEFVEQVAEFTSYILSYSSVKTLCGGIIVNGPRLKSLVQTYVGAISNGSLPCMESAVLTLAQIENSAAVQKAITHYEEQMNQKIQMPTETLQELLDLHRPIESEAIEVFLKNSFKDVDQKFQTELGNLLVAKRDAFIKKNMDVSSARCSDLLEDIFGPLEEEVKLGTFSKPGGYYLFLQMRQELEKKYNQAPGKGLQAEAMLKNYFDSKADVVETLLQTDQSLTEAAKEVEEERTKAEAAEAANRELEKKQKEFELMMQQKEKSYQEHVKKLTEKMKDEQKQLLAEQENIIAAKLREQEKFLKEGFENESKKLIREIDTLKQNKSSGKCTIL
Kind of experiment: affinity purification with mass spectrometry; anti-HA antibody (clone HA-7) agarose beads, o/n at 4°C, on lysate supernatants (NP-40 buffer) of mGBP2-/- MEFs reconstituted with HA-mGBP2; IFN-γ 16 h, uninfected or infected with T. gondii ME49 (MOI 50) 2 h; empty-vector cells as control; label-free quantitative LC-MS/MS.

These are yes or no findings as the source states them, for the method shown. In cells and extracts the contact can be indirect. A yes stands for co-enrichment or nearness to the bait. Other partners may have been found. Sequences can lack the tags named with a protein.

B1: mGBP5 (murine guanylate binding protein 5) (protein, UniProt Q8CFB4 1-590)
chain: MAPEIHMPEPLCLIGSTEGHLVTNQEALKILSAITQPVVVVAIVGLYRTGKSYLMNKLAGKEKGFSVGSTVQSHTKGIWMWCVPHPQKPDHTLVLLDTEGLGDVEKDDKKNDTQIFALAILLSSTFVYNTMNKIDQGAIDLLHNVTELTDLLRTRNSSDSNQTEGEGPADMSFFPDLVWTLRDFFLDLQANGHAITSDEYLENSLKLKQGSDERTQTFNLPRLCIQKFFPVKKCFVFDAPALGSKLSQLPTLSNEELNSDFVQDLSEFCSHIFTQSKTKTLPGGIQVNGPRLESLVLTYVDAINSGALPSIENTVVTLARRENSAAVQKAIGHYDQLMSEKVQLPTETLQELLDLHRTCEREAIEIFRKHSFKDEGEFFQKELESLLSAKQDEICKKNADASAALCSTLLGSIFKPLEQEVAQEFYHKPGGHKLFLQRMEQLKANYRQQPGKGTQAEEVLQTYLNAKETVSRTILQTDQVLTDKEIQSKAEQERAEAARLEAQRLEAIRIQEEQRKAEMERQHQEQLRQIALEKARVAQEQQWILKQRAQEEADRIKAEQEAQLRALQQQLQHMREMNHHRRHHHDCVIS
As for B1, the binding result is given as “binds”.

B2: mGBP1 (murine guanylate binding protein 1) (protein, UniProt Q01514 1-589)
chain: MASEIHMSEPMCLIENTEAQLVINQEALRILSAITQPVVVVAIVGLYRTGKSYLMNKLAGKRTGFSLGSTVQSHTKGIWMWCVPHPKKAGQTLVLLDTEGLEDVEKGDNQNDCWIFALAVLLSSTFIYNSIGTINQQAMDQLHYVTELTDLIKSKSSPDQSDVDNSANFVGFFPIFVWTLRDFSLDLEFDGESITPDEYLETSLALRKGTDENTKKFNMPRLCIRKFFPKRKCFIFDRPGDRKQLSKLEWIQEDQLNKEFVEQVAEFTSYIFSYSGVKTLSGGITVNGPRLKSLVQTYVSAICSGELPCMENAVLTLAQIENSAAVQKAITYYEEQMNQKIHMPTETLQELLDLHRTCEREAIEVFMKNSFKDVDQKFQEELGAQLEAKRDAFVKKNMDMSSAHCSDLLEGLFAHLEEEVKQGTFYKPGGYYLFLQRKQELEKKYIQTPGKGLQAEVMLRKYFESKEDLADTLLKMDQSLTEKEKQIEMERIKAEAAEAANRALAEMQKKHEMLMEQKEQSYQEHMKQLTEKMEQERKELMAEQQRIISLKLQEQERLLKQGFQNESLQLRQEIEKIKNMPPPRSCTIL
In the case of B2, the binding result is reported as “binds”.
